Reference: article PMC8986809
Results are given in words; binding and its absence hold for the method and conditions named. Binding seen in cells or lysates may run through a third protein. Some binding calls cover weakened binding; strength is not graded here.

Chains of the proteins cited; added tags and fusions are not shown.
UniProt Q00987: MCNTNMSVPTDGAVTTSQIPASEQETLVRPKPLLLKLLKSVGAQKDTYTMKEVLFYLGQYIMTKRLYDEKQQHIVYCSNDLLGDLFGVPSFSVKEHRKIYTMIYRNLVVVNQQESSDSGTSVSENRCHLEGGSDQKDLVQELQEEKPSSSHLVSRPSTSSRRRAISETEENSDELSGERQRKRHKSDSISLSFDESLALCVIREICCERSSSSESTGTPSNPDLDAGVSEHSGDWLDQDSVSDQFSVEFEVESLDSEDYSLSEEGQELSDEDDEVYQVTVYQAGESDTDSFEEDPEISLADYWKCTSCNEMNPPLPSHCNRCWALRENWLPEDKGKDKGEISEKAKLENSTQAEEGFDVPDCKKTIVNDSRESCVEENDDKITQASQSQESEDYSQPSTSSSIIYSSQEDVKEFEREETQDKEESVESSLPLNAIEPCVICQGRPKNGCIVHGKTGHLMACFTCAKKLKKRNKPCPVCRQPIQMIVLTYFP
UniProt P67809: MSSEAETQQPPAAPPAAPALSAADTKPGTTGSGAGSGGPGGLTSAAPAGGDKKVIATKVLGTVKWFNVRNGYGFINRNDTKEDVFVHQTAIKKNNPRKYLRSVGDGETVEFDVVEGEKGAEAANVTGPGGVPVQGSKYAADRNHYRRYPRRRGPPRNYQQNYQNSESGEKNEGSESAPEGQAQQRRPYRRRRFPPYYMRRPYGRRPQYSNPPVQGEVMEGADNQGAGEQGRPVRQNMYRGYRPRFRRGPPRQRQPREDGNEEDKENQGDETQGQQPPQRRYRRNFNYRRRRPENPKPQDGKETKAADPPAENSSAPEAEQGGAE

Target: MDM2 (mouse double minute 2 homologue), E3 ubiquitin-protein ligase (human (endogenous in NSCLC cell lines)) (UniProt Q00987)
Assay: co-IP; NSCLC cell lysate (50 mM Tris-HCl, 200 mM NaCl, 1 mM EDTA, 1% Triton X-100, protease inhibitor); anti-MDM2 or IgG overnight at 4 °C, Protein-A Dynabeads 3 h at 4 °C; blot for YBX1 and MDM2; also in cells transfected with shNC or sh-HOXC-AS3 (more YBX1) and with NC or OE-HOXC-AS3 (less YBX1)

binding: binds
Substance: Y-box binding protein-1 (from UniProt P67809 1-324)
